Patent US20190350933A1
These are yes or no findings as the source states them, for the method shown. For part of these data: In cells and extracts the contact can be indirect. Some binding calls cover weakened binding; strength is not graded here.

Amino acid sequences for entries named in this document (tags omitted). Residues count along the entry.
UniProt P40763, residues 2-770: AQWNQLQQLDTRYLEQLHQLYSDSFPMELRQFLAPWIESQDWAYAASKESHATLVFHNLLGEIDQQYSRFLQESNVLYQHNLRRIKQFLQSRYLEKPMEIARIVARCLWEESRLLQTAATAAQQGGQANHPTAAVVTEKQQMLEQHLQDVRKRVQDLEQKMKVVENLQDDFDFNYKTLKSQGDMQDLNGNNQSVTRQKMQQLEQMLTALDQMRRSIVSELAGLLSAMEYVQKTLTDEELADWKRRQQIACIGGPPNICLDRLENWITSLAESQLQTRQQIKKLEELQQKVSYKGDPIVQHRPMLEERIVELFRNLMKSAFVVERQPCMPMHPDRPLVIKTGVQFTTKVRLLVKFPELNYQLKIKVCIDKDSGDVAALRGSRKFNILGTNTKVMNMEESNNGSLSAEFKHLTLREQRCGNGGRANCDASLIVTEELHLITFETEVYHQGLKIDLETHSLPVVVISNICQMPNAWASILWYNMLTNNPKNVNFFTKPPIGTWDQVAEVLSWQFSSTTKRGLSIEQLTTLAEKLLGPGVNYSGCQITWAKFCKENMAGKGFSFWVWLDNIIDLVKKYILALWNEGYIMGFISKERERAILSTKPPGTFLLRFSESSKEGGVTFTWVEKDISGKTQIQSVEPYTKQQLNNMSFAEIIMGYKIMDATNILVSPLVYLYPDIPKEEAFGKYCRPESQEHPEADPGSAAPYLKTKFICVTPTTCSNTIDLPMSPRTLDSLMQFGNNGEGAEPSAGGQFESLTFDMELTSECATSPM

Assays:
STAT3 [1] = target: STAT3 (UniProt P40763); assay: co-immunoprecipitation (summary of results)
STAT3 [2] = target: STAT3 (UniProt P40763); assay: subcellular fractionation followed by immunoprecipitation, Western blot
STAT3 [3] = target: STAT3 (UniProt P40763); assay: co-immunoprecipitation from subcellular fractions of HCC cells, Western blot

binding (STAT3 [1]): binds | binding (STAT3 [2]): binds | binding (STAT3 [3]): binds
B1: SLC29A2 (protein, UniProt Q14542 1-456, looked up)
chain: MARGDAPRDSYHLVGISFFILGLGTLLPWNFFITAIPYFQARLAGAGNSTARILSTNHTGPEDAFNFNNWVTLLSQLPLLLFTLLNSFLYQCVPETVRILGSLLAILLLFALTAALVKVDMSPGPFFSITMASVCFINSFSAVLQGSLFGQLGTMPSTYSTLFLSGQGLAGIFAALAMLLSMASGVDAETSALGYFITPCVGILMSIVCYLSLPHLKFARYYLANKSSQAQAQELETKAELLQSDENGIPSSPQKVALTLDLDLEKEPESEPDEPQKPGKPSVFTVFQKIWLTALCLVLVFTVTLSVFPAITAMVTSSTSPGKWSQFFNPICCFLLFNIMDWLGRSLTSYFLWPDEDSRLLPLLVCLRFLFVPLFMLCHVPQRSRLPILFPQDAYFITFMLLFAVSNGYLVSLTMCLAPRQVLPHEREVAGALMTFFLALGLSCGASLSFLFKALL
modifications: N-glycosylation sites at residue 48 and residue 57
